The record followed here is US20070059339A1, “1-O-BETA-D-glucopyranosylgeraniol-10,5-olide and use thereof” (ISKRA INDUSTRY CO., LTD., priority 2005, published 2007).

SMILES strings stand for the structures.

The nature of this data set: Obesity ameliorating, lipid metabolism ameliorating and hypoglycemic action in mice bred with a high fat diet. To be noted: during the 6 week administration period, 250 mg/kg once a day. The data set is classed as in vivo, ddY male SPF mice. From the text:
6 week-old ddY male SPF mice (Nippon .SLC, body weight: about 30 g) were pre-bred for 1 week, then, divided into two groups of a control group and an administration group (5 mice for each group). Each of the mice in both the groups was bred for 6 weeks with a high fat diet (lard 40%, corn starch 10%, granulated sugar 9%, mineral mix 4%, vitamin mix 1%, casein 29%, cellulose 5%, lactose 2%). For the mice in the administration group, a specimen solution prepared by dissolving the compound (I) in purified water was continuously administered for 6 weeks with a dose of 250 mg/kg once a day while allowing water-drinking, and the body weight was measured at a frequency of once a week, during the feeding period with the high fat diet. For the mice in the control group, purified water was administered for 6 weeks instead of the specimen solution while allowing water-drinking.
The average value of the body weight of mice in each group and the standard error thereof were measured, and a significant difference test (t-test) between both the groups was carried out.
On the other hand, after completion of the above-mentioned continuous administration allowing water-drinking for 6 weeks, serum was collected from each mouse and blood biochemical values were measured, and liver and fat were excised and the weights of them were measured, respectively. […]

Regarding `CC(C)=CC1C/C(=C/CO[C@@H]2OC(CO)[C@@H](O)C(O)C2O)C(=O)O1` (stereo partly drawn) [compound (I), 1-O-β-D-glucopyranosylgeraniol-10,5-olide], the “Diet taking amount versus control group” value is listed as “approximately the same” and the “Water taking amount versus control group” value is “approximately the same”.
